PubChem BioAssay AID1508597 – Cure First – 2020

Aim: 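Knock-downs altering ovarian cancer cell survival with or without PARP inhibitor rucaparib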 (primary screen)
Cells: human ovarian carcinoma lines grown from tumours: OCI-P5x (papillary serous) and OCI-C5x (clear cell)
Knock-down reagent: siRNA pool against human genes, 1.25 pmol siRNA per well
Duration: 72 h or 96 h, depending on the cell culture
Challenge: rucaparib 20 µM (about IC30) or vehicle, present until read-out
Rucaparib or vehicle: Vehicle
Cell line: OCI-P5x (serous)
Measurement: 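Luminescent ATP-based viability assay read 72 or 96 h after transfection, depending on culture, given as normalised percent viability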
Reading the numbers: viability, normalised: higher = more viable cells remaining
Active means: 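Active when normalised viability falls below 80 percent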
Calls: active = viability under 80%; inactive = viability 80% or more
Shown is a random part of the about 2,100 reagents, in one setting of the screen. 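Calls flag viability under 80% in either arm, not effects specific to rucaparib; the reference for percent is not stated.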 Some reagents were tested in more than one well and are listed for each. The record does not give: the 100% reference.

Target gene | technical replicate | viability, normalised (%) | activity call
SREBF1 (sterol regulatory element binding transcription factor 1) | 1 | 68.5 | active
SREBF1 (sterol regulatory element binding transcription factor 1) | 2 | 71.2 | active
SREBF1 (sterol regulatory element binding transcription factor 1) | 3 | 87.5 | inactive
LY6E (lymphocyte antigen 6 family member E) | 1 | 85.1 | inactive
LY6E (lymphocyte antigen 6 family member E) | 2 | 81.8 | inactive
LY6E (lymphocyte antigen 6 family member E) | 3 | 82.6 | inactive
QPCT (glutaminyl-peptide cyclotransferase) | 1 | 68.9 | active
QPCT (glutaminyl-peptide cyclotransferase) | 2 | 64.8 | active
QPCT (glutaminyl-peptide cyclotransferase) | 3 | 74.7 | active
PDE4B (phosphodiesterase 4B) | 1 | 52.6 | active
PDE4B (phosphodiesterase 4B) | 2 | 59.7 | active
PDE4B (phosphodiesterase 4B) | 3 | 63.5 | active
ZDHHC15 (zDHHC palmitoyltransferase 15) | 1 | 66.4 | active
ZDHHC15 (zDHHC palmitoyltransferase 15) | 2 | 66.4 | active
ZDHHC15 (zDHHC palmitoyltransferase 15) | 3 | 43.9 | active
BTK (Bruton tyrosine kinase) | 1 | 81.8 | inactive
BTK (Bruton tyrosine kinase) | 1 | 71.6 | active
BTK (Bruton tyrosine kinase) | 2 | 80.8 | inactive
BTK (Bruton tyrosine kinase) | 2 | 65.8 | active
BTK (Bruton tyrosine kinase) | 3 | 67.1 | active
BTK (Bruton tyrosine kinase) | 3 | 78.1 | active
SFMBT2 (Scm like with four mbt domains 2) | 1 | 51.5 | active
SFMBT2 (Scm like with four mbt domains 2) | 2 | 61.2 | active
SFMBT2 (Scm like with four mbt domains 2) | 3 | 142 | inactive
NBL1 (NBL1, DAN family BMP antagonist) | 1 | 92.5 | inactive
NBL1 (NBL1, DAN family BMP antagonist) | 2 | 80.5 | inactive
NBL1 (NBL1, DAN family BMP antagonist) | 3 | 84.2 | inactive
NIN (ninein) | 1 | 42.9 | active
NIN (ninein) | 2 | 46.7 | active
NIN (ninein) | 3 | 52 | active
MKNK2 (MAPK interacting serine/threonine kinase 2) | 1 | 81.9 | inactive
MKNK2 (MAPK interacting serine/threonine kinase 2) | 2 | 81.4 | inactive
MKNK2 (MAPK interacting serine/threonine kinase 2) | 3 | 86.7 | inactive
TKFC (triokinase and FMN cyclase) | 1 | 67.9 | active
TKFC (triokinase and FMN cyclase) | 2 | 46.1 | active
TKFC (triokinase and FMN cyclase) | 3 | 52.4 | active
LIMK1 (LIM domain kinase 1) | 1 | 98.4 | inactive
LIMK1 (LIM domain kinase 1) | 2 | 72 | active
LIMK1 (LIM domain kinase 1) | 3 | 88.8 | inactive
SUPT7L (SPT7 like, STAGA complex subunit gamma) | 1 | 61.1 | active
SUPT7L (SPT7 like, STAGA complex subunit gamma) | 2 | 66.9 | active
SUPT7L (SPT7 like, STAGA complex subunit gamma) | 3 | 62.5 | active
TPK1 (thiamin pyrophosphokinase 1) | 1 | 76.9 | active
TPK1 (thiamin pyrophosphokinase 1) | 2 | 70 | active
TPK1 (thiamin pyrophosphokinase 1) | 3 | 58.8 | active
EID1 (EP300 interacting inhibitor of differentiation 1) | 1 | 69.7 | active
EID1 (EP300 interacting inhibitor of differentiation 1) | 2 | 86.3 | inactive
EID1 (EP300 interacting inhibitor of differentiation 1) | 3 | 114 | inactive
MYOD1 (myogenic differentiation 1) | 1 | 40.4 | active
MYOD1 (myogenic differentiation 1) | 2 | 44.5 | active
MYOD1 (myogenic differentiation 1) | 3 | 50.7 | active
BUB3 (BUB3 mitotic checkpoint protein) | 1 | 58.9 | active
BUB3 (BUB3 mitotic checkpoint protein) | 2 | 64.3 | active
BUB3 (BUB3 mitotic checkpoint protein) | 3 | 62.3 | active
SLC17A1 | 1 | 74.9 | active
SLC17A1 | 2 | 70.8 | active
SLC17A1 | 3 | 103 | inactive
DDX3Y (DEAD-box helicase 3 Y-linked) | 1 | 30.1 | active
DDX3Y (DEAD-box helicase 3 Y-linked) | 2 | 35.3 | active
DDX3Y (DEAD-box helicase 3 Y-linked) | 3 | 47.8 | active
PPARGC1A (PPARG coactivator 1 alpha) | 1 | 73.4 | active
PPARGC1A (PPARG coactivator 1 alpha) | 2 | 91.4 | inactive
PPARGC1A (PPARG coactivator 1 alpha) | 3 | 86.4 | inactive
CDK5 (cyclin dependent kinase 5) | 1 | 75.5 | active
CDK5 (cyclin dependent kinase 5) | 2 | 109 | inactive
CDK5 (cyclin dependent kinase 5) | 3 | 82.8 | inactive
DGKQ (diacylglycerol kinase theta) | 1 | 62.8 | active
DGKQ (diacylglycerol kinase theta) | 2 | 59.1 | active
DGKQ (diacylglycerol kinase theta) | 3 | 69.6 | active
BCOR (BCL6 corepressor) | 1 | 73.4 | active
BCOR (BCL6 corepressor) | 2 | 84.3 | inactive
BCOR (BCL6 corepressor) | 3 | 84.7 | inactive
SATB1 (SATB homeobox 1) | 1 | 63.8 | active
SATB1 (SATB homeobox 1) | 2 | 63.5 | active
SATB1 (SATB homeobox 1) | 3 | 75 | active
